This data set relates to NB tumor cell gene expression. In words: Eukaryotic mRNA-seq of xenograft tumors. The following applies: NB transcripts (uniquely human), two-fold, adjusted P<0.05, vs control tumors. It counts as in vivo, mouse. An excerpt:
(FIG. 17A) Tumors recovered from mice in FIG. 16 were snap frozen in OTC media, thin sectioned, and stained for murine CD31 expression (red) and DAPI counterstain (blue). Results shown are representative images from five fields of view (FOVs) per tumor, with five tumors per group. Scale bar 50 μm. (FIG. 17B) Total number of CD31+ regions per FOV with box and whisker plot showing quartiles±range (Ctrl n=15, Etan n=25). (FIG. 17C) Size of each CD31+ area quantified per FOV; shown is median CD31+ area per FOV with box and whisker plot showing quartiles±range (Ctrl n=15, Etan n=25) (FIG. 17D) Longest distance across each CD31+ area (Max Feret distance) per FOV; shown is median distance per FOV with box and whisker plot showing quartiles±range (Ctrl n=15, Etan n=25). […]
Total RNA from cell pellets was isolated using the RNeasy Micro Plus Kit (Qiagen). […] Relative changes in gene expression were calculated based on the ΔCt method using housekeeping gene GAPDH as control. […]
Eukaryotic mRNA sequencing with 30M depth and 150 paired end reads was performed by Novogene, Inc. Quality control checks on FASTQ sequencing files were performed by FastQC (v0.11.2, https://www.bioinformatics.babraham.ac.uk/projects/fastqc/). Reads were then aligned to human (GRCh38, Ensembl release version 84) or mouse (GRCm38, Ensembl release version 81) reference genomes separately by hisat2 v2.1.0(51). […]
For orientation: Xenograft models place foreign cells or tissue in a host animal.

With etanercept, the “genes downregulated in treated tumors” value was determined as 117 genes and the “genes upregulated in treated tumors” value is on record as 138 genes.
